Assay results from the supplement of paper PMC10849652.
Some of the results follow.

Sequences of proteins named here, by UniProt entry; tags and fusion partners are left off. A change or cut given only in a name is not applied to a line headed by its entry.
UniProt Q9BSL1: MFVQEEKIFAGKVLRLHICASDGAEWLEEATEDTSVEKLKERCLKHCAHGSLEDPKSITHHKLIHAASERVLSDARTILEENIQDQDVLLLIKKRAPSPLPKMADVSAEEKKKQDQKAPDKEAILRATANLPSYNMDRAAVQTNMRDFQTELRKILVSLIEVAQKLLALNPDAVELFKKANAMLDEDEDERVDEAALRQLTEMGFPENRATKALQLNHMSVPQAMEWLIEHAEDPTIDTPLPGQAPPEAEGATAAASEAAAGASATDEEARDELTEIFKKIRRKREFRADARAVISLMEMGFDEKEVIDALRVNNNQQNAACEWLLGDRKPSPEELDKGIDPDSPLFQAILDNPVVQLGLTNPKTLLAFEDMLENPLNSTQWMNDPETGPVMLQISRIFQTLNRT
UniProt P63279, whole entry, looked up: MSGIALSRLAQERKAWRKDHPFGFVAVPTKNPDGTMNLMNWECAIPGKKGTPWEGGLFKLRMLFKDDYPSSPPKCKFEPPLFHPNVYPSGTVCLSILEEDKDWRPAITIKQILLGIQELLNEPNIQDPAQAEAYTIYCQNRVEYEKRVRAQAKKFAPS
UniProt Q9NUQ3: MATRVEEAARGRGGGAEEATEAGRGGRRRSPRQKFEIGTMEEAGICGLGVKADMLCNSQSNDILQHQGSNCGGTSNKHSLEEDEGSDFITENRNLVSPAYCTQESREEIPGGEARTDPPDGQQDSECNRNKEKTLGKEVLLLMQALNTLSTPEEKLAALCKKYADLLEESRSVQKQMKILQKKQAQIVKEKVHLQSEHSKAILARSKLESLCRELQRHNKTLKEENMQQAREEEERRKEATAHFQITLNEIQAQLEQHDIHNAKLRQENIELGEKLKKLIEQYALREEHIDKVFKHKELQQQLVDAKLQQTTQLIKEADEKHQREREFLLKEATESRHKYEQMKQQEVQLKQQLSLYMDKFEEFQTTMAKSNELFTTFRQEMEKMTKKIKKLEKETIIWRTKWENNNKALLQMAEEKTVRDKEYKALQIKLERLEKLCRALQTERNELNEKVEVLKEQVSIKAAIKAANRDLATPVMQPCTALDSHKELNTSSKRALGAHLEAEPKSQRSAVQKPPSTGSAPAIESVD
UniProt Q9NZ09: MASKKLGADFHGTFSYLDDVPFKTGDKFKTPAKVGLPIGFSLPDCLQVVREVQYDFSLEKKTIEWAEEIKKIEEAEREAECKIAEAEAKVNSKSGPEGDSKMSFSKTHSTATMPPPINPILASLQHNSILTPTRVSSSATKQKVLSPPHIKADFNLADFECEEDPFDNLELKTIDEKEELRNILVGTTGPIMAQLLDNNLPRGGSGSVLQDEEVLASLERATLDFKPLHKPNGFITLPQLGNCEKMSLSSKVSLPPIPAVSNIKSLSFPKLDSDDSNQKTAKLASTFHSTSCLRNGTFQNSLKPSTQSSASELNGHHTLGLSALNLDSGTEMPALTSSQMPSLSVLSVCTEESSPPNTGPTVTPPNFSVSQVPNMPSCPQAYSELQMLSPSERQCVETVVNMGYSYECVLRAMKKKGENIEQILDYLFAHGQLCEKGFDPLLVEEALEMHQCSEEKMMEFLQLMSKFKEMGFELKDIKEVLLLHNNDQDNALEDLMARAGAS
UniProt Q9Y385: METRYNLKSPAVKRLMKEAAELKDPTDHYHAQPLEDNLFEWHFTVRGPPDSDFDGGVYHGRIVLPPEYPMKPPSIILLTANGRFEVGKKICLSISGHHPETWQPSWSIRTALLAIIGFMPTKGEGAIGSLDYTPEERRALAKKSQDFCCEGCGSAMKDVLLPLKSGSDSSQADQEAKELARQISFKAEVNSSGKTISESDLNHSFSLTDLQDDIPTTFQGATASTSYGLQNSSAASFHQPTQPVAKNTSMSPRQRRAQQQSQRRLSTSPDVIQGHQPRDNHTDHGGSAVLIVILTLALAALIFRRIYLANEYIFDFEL
UniProt Q9H832: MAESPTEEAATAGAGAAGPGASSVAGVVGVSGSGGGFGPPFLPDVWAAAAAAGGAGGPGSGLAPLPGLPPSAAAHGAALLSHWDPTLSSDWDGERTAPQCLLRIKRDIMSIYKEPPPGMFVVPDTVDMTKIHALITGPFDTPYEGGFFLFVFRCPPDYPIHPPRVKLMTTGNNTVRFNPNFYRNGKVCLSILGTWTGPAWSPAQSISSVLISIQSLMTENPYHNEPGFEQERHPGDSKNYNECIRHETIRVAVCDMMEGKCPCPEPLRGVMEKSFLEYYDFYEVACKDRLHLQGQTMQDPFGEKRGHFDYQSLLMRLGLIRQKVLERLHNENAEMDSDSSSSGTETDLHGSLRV
UniProt Q16763: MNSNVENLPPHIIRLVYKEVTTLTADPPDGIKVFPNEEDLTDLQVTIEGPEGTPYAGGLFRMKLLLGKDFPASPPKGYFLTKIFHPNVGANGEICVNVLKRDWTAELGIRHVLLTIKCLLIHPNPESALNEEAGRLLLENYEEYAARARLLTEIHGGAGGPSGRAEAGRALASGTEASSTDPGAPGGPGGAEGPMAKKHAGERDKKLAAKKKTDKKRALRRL
UniProt Q9UMX0, whole entry, looked up: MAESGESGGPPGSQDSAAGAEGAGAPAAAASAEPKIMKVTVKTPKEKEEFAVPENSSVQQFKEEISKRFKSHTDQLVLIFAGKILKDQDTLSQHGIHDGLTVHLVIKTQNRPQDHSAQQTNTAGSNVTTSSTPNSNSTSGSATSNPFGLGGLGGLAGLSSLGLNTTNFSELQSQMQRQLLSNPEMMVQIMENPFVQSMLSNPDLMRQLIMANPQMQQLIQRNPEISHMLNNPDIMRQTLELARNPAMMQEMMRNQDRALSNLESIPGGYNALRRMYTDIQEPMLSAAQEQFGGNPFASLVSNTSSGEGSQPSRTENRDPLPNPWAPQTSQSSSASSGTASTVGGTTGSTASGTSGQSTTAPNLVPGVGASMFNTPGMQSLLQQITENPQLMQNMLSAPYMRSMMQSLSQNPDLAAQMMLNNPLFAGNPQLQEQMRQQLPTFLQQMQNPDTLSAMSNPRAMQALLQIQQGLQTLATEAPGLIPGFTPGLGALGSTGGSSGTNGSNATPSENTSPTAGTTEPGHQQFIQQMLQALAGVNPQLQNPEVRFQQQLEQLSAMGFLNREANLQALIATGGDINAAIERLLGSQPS
UniProt P07437, whole entry, looked up: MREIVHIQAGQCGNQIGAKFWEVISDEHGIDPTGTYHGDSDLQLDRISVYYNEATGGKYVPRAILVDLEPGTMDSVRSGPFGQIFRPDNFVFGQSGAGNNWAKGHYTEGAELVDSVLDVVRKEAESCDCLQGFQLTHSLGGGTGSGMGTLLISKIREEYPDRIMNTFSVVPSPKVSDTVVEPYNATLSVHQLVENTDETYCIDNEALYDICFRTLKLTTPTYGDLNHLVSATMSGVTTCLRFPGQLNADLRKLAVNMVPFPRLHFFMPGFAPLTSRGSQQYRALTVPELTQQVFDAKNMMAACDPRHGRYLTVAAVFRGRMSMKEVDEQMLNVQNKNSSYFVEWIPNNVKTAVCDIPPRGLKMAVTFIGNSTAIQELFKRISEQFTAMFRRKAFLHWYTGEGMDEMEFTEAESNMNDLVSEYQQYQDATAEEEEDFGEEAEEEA
UniProt Q9BUF5, whole entry, looked up: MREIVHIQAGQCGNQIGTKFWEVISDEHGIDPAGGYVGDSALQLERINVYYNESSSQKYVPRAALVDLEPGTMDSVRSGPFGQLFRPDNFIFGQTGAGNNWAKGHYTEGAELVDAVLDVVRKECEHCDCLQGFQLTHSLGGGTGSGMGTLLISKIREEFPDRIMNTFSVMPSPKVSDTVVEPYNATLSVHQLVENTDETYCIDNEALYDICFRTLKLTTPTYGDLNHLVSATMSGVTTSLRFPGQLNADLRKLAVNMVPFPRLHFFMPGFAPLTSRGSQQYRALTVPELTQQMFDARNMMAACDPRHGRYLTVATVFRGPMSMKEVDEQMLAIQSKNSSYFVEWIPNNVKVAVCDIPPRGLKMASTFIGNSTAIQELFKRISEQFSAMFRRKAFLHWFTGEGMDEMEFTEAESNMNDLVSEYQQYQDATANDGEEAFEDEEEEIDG
UniProt Q5JXB2: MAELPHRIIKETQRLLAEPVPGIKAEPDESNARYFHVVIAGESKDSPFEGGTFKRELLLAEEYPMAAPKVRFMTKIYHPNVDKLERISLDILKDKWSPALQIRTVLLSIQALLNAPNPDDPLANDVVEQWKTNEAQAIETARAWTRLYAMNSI
UniProt Q9GZZ9, whole entry, looked up: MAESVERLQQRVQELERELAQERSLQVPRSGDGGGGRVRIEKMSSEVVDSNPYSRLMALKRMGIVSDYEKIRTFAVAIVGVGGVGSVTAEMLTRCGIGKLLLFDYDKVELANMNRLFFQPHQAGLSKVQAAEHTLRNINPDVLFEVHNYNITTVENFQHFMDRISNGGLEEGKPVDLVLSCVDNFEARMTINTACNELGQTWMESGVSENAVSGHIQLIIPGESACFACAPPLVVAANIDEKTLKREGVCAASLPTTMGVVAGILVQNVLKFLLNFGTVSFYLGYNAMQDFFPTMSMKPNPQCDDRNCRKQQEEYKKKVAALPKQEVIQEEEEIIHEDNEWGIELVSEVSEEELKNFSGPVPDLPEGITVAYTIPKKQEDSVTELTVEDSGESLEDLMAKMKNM
UniProt Q5VYS8: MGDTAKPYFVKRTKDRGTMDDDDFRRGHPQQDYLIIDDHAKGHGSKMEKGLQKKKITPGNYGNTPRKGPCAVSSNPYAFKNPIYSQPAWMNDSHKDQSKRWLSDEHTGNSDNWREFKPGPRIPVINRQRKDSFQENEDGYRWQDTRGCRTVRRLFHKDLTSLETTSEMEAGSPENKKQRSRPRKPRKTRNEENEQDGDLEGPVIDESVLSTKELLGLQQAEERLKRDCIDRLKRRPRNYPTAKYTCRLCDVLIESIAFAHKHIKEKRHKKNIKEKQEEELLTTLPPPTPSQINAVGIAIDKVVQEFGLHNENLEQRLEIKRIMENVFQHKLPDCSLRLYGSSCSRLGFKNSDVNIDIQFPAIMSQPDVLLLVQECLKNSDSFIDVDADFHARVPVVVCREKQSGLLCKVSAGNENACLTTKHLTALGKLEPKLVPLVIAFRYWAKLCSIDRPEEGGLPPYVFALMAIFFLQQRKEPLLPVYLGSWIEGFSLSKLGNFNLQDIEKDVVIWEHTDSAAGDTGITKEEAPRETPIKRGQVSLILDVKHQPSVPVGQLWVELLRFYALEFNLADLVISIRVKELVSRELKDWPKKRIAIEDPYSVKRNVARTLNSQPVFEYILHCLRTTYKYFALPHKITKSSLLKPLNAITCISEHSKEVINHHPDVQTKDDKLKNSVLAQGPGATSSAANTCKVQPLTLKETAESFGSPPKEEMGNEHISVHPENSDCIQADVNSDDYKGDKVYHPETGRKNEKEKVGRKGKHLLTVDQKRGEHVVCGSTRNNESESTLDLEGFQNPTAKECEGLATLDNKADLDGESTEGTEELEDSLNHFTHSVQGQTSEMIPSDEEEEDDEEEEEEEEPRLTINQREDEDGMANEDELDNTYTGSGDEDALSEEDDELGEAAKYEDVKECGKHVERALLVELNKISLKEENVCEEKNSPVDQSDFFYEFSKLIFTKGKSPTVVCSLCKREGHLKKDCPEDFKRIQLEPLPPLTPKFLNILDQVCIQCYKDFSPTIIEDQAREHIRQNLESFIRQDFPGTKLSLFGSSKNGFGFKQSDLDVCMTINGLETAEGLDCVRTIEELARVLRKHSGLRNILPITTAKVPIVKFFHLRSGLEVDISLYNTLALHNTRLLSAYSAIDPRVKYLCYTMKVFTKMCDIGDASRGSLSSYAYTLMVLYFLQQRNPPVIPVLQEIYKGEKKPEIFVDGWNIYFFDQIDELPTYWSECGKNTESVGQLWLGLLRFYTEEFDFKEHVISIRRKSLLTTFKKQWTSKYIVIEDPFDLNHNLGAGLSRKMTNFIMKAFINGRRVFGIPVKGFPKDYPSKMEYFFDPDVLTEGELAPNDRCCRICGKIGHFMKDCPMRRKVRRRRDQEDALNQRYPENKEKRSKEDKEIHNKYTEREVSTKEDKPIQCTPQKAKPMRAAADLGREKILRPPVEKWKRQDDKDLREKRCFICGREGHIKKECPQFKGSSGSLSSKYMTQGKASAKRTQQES
UniProt Q9UJT1: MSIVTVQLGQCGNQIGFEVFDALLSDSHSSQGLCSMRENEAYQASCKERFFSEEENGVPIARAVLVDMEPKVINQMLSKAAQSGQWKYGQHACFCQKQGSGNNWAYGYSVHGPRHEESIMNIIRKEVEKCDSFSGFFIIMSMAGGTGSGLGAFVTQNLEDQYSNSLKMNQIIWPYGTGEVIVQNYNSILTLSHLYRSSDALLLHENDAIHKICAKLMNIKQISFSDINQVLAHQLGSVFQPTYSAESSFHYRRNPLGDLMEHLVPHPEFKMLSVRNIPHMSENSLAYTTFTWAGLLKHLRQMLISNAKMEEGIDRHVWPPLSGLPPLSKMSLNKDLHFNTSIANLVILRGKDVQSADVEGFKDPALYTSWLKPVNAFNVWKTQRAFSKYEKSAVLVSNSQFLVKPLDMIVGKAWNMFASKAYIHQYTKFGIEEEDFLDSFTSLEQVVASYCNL

Tests used:
Experiment in all cases: log2 fold change, soluble protein after heating vs DMSO (PISA); higher = thermal stabilisation; K562 lysate, 10 uM; active = over 0.2 and 3.5 SD of the protein, either way, in both replicates (recomputed)
[1] = compound: C=CC(=O)N1CCC[C@@H](n2nc(-c3ccc(Oc4ccccc4)cc3)c3c(N)ncnc32)C1 [ibrutinib]
Summary of the method: (§1)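 Dounce homogenisation of K562 pellets in PBS pH 7.4 with 1 mM MgCl2 produced a crude extract, used at 1 mg/mL protein. Exposure to 10 μM compound lasted 30 min, and aliquots were then heated for 3 min across 48°C-58°C, pooled and brought to 0.5% NP-40 at 4°C. The supernatant after 21,000xg for 90 min was quantified by TMTpro 16plex LC-MS/MS with channel sums equalised. Duplicate values are given as log-two fold change in thermal stability relative to solvent controls.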

[2] = compound: CC(=O)c1cnc2ccc(-c3cc(Cl)c(O)c(Cl)c3)nc2c1N[C@H]1CC[C@H](CN(C)C)CC1
Summary of the method: as §1

[3] = compound: CC(C)(C)Cn1c(N)nc2ccc(-c3[nH]c(C(C)(C)C)nc3-c3ccc(F)cc3)nc21 [ralimetinib]
Summary of the method: as §1

[4] = compound: CC(C)(O)CC(=O)NCCn1ccc2ncnc(Nc3ccc(Oc4cccc(C(F)(F)F)c4)c(Cl)c3)c21
Summary of the method: as §1

[5] = compound: CC(C)C1=C2N=C(C=C(N2N=C1)NCC3=CC=CC=C3)NCCCCCCN
Summary of the method: as §1

[6] = compound: CC1=C(C(CC(=O)N1)C2=CC=C(C=C2)C(F)(F)F)C(=O)NC3=C(C=C4C(=C3)C=NN4)F
Summary of the method: as §1

[7] = compound: CC1=C(C2=C(C=C1)C(=O)C3=CC=CC=C3N2CCCN)C
Summary of the method: as §1

[8] = compound: CC1=C(C=C(C=C1)NC(=O)C2=CC(=CC=C2)C(C)(C)C#N)NC3=CC4=C(C=C3)N=CN(C4=O)C
Summary of the method: as §1

[9] = compound: CC1=C(C=C(C=C1)NC(=O)C2=CC(=CC=C2)N(C)C)NC(=O)C3=CC=C(C=C3)O
Summary of the method: as §1

[10] = compound: CC1=CC=C(C=C1)SC2=C3C=C(SC3=CN=C2)C(=O)N
Summary of the method: as §1

Row | Target | log2 fold change [1] | log2 fold change [2] | log2 fold change [3] | log2 fold change [4] | log2 fold change [5] | log2 fold change [6] | log2 fold change [7] | log2 fold change [8] | log2 fold change [9] | log2 fold change [10]
1 | TWSG1 (UniProt Q9GZX9) | inactive: 0.076 | inactive: -0.008 | inactive: 0.002 | inactive: -0.005 | inactive: 0.016 | inactive: -0.041 | inactive: 0.146 | inactive: -0.011 | inactive: 0.045 | inactive: -0.023
2 | TWF2 (UniProt Q6IBS0) | inactive: -0.008 | inactive: -0.008 | inactive: 0.01 | inactive: 0.006 | inactive: -0.01 | inactive: -0.031 | inactive: 0.006 | inactive: 0.009 | inactive: -0.013 | inactive: 0
3 | UBAC1 (UniProt Q9BSL1) | inactive: 0.028 | inactive: 0 | inactive: 0.009 | inactive: -0.017 | inactive: 0 | inactive: 0.002 | inactive: 0.01 | inactive: 0.023 | inactive: 0.032 | inactive: -0.024
4 | TUBB4A (UniProt P04350) | inactive: 0.007 | inactive: -0.018 | inactive: 0.074 | inactive: 0.039 | inactive: 0.088 | inactive: 0.009 | inactive: -0.086 | inactive: -0.085 | inactive: -0.015 | inactive: -0.068
5 | UBE2I (UniProt P63279) | inactive: 0.052 | inactive: -0.021 | inactive: -0.012 | inactive: 0.001 | inactive: 0.03 | inactive: -0.017 | inactive: 0.052 | inactive: 0.055 | inactive: 0.01 | inactive: -0.002
6 | U2SURP (UniProt O15042) | inactive: -0.032 | inactive: 0.012 | inactive: 0.021 | inactive: 0.001 | inactive: -0.022 | inactive: -0.001 | inactive: -0.018 | inactive: -0.065 | inactive: 0.014 | inactive: -0.016
7 | TXLNG (UniProt Q9NUQ3) | inactive: 0.011 | inactive: 0 | inactive: 0.005 | inactive: 0.008 | inactive: -0.015 | inactive: -0.006 | inactive: -0.005 | inactive: -0.014 | inactive: 0.01 | inactive: -0.003
8 | UBE4B isoform 4 (UniProt O95155) | inactive: 0.004 | inactive: -0.005 | inactive: -0.002 | inactive: -0.039 | inactive: -0.015 | inactive: -0.018 | inactive: 0 | inactive: 0.01 | inactive: 0.016 | inactive: -0.008
9 | UBAP2 (UniProt Q5T6F2) | inactive: 0.014 | inactive: 0.009 | inactive: -0.044 | inactive: -0.067 | inactive: 0.008 | inactive: 0.03 | inactive: 0.006 | active: -0.474 | inactive: -0.026 | inactive: -0.019
10 | UBE2K (UniProt P61086) | inactive: 0.017 | inactive: -0.007 | inactive: -0.007 | inactive: -0.054 | inactive: -0.019 | inactive: -0.021 | inactive: 0 | inactive: 0.043 | inactive: -0.008 | inactive: -0.006
11 | TXNL1 (UniProt O43396) | inactive: -0.006 | inactive: 0.003 | inactive: -0.002 | inactive: 0 | inactive: -0.002 | inactive: -0.006 | inactive: 0.001 | inactive: 0.017 | inactive: 0.008 | inactive: 0.002
12 | UBAP1 (UniProt Q9NZ09) | inactive: 0.019 | inactive: 0.052 | inactive: -0.003 | inactive: -0.048 | inactive: 0.036 | inactive: 0.053 | inactive: 0.014 | inactive: -0.087 | inactive: -0.006 | inactive: -0.039
13 | UBE2J1 (UniProt Q9Y385) | inactive: 0.025 | inactive: 0.012 | inactive: -0.058 | inactive: -0.094 | inactive: -0.01 | inactive: -0.016 | inactive: 0.013 | inactive: 0.031 | inactive: 0.058 | inactive: 0.01
14 | TUBGCP3 (UniProt Q96CW5) | inactive: -0.007 | inactive: 0.018 | inactive: 0.03 | inactive: 0.045 | inactive: -0.039 | inactive: 0.003 | inactive: -0.037 | inactive: 0.004 | inactive: 0.106 | inactive: 0.028
15 | UBE2Z (UniProt Q9H832) | inactive: -0.006 | inactive: -0.016 | inactive: 0.008 | inactive: 0.002 | inactive: -0.014 | inactive: 0.014 | inactive: 0.046 | inactive: 0.03 | inactive: -0.018 | inactive: 0.005
16 | UBE2S (UniProt Q16763) | inactive: -0.002 | inactive: 0.017 | inactive: 0.028 | inactive: -0.023 | inactive: 0.025 | inactive: -0.002 | inactive: -0.022 | inactive: 0.019 | inactive: -0.014 | inactive: -0.022
17 | UBE3B (UniProt Q7Z3V4) | inactive: 0.041 | inactive: 0.019 | inactive: 0.02 | inactive: -0.074 | inactive: -0.112 | inactive: 0.068 | inactive: 0 | inactive: -0.004 | inactive: -0.022 | inactive: 0.023
18 | UBQLN1 (UniProt Q9UMX0) | inactive: 0.087 | inactive: -0.017 | inactive: 0.019 | inactive: -0.04 | inactive: -0.035 | inactive: -0.02 | inactive: -0.028 | inactive: 0.017 | inactive: 0.007 | inactive: -0.011
19 | TUBB (UniProt P07437) | inactive: -0.013 | inactive: 0.011 | inactive: 0.038 | inactive: -0.009 | inactive: 0.037 | inactive: 0.049 | inactive: 0.003 | inactive: 0.007 | inactive: 0.014 | inactive: 0.009
20 | UBTF (UniProt P17480) | inactive: 0.026 | inactive: 0.025 | inactive: 0.017 | inactive: -0.002 | inactive: 0.016 | inactive: 0.046 | inactive: -0.075 | inactive: -0.022 | inactive: 0.044 | inactive: -0.002
21 | UBE3D (UniProt Q7Z6J8) | inactive: -0.03 | inactive: -0.062 | inactive: -0.005 | inactive: -0.057 | inactive: -0.006 | inactive: -0.035 | inactive: 0.066 | inactive: 0.02 | inactive: -0.013 | inactive: -0.008
22 | TUBA4A (UniProt C9JQ00) | inactive: 0.125 |  |  |  |  |  |  |  |  | 
23 | UBR4 (UniProt Q5T4S7) | inactive: -0.019 | inactive: -0.008 | inactive: 0.02 | inactive: -0.011 | inactive: -0.02 | inactive: 0.003 | inactive: 0.011 | inactive: 0.009 | inactive: 0.014 | inactive: 0.01
24 | TUBB6 (UniProt Q9BUF5) | inactive: -0.005 | inactive: 0.012 | inactive: 0.023 | inactive: -0.038 | inactive: 0.027 | inactive: 0.012 | inactive: 0.025 | inactive: -0.024 | inactive: -0.009 | inactive: 0.025
25 | UBE2NL (UniProt Q5JXB2) | inactive: 0.063 | inactive: -0.009 | inactive: -0.033 | inactive: -0.002 | inactive: 0.03 | inactive: -0.03 | inactive: -0.044 | inactive: -0.021 | inactive: -0.047 | inactive: 0
26 | TXNDC11 (UniProt Q6PKC3) | inactive: -0.015 | inactive: 0.036 | inactive: 0.059 | inactive: 0.015 | inactive: -0.097 | inactive: -0.042 | inactive: -0.013 | inactive: 0.017 | inactive: 0.042 | inactive: -0.01
27 | UBA5 (UniProt Q9GZZ9) | inactive: -0.004 | inactive: -0.023 | inactive: 0.085 | inactive: -0.007 | inactive: -0.003 | inactive: -0.002 | inactive: -0.028 | inactive: -0.014 | inactive: 0.047 | inactive: 0.013
28 | TUT7 (UniProt Q5VYS8) | inactive: 0.009 | inactive: 0.025 | inactive: -0.054 | inactive: -0.047 | inactive: -0.013 | inactive: -0.018 | inactive: -0.279 | inactive: 0.021 | inactive: -0.066 | inactive: -0.097
29 | TUBA1C (UniProt Q9BQE3) | inactive: -0.001 | inactive: 0.017 | inactive: 0.007 | inactive: -0.043 | inactive: 0.032 | inactive: 0.015 | inactive: -0.035 | inactive: -0.012 | inactive: 0.043 | inactive: 0.009
30 | TUBD1 (UniProt Q9UJT1) | inactive: 0.185 | inactive: -0.128 | inactive: -0.048 | inactive: -0.044 | inactive: -0.116 | inactive: 0.045 | inactive: -0.084 | inactive: -0.077 | inactive: 0.066 | inactive: 0.155

Full records, quoted from the list. Order of values: log2 fold change [1] | log2 fold change [2] | log2 fold change [3] | log2 fold change [4] | log2 fold change [5] | log2 fold change [6] | log2 fold change [7] | log2 fold change [8] | log2 fold change [9] | log2 fold change [10]
TXLNG (UniProt Q9NUQ3) in the list: inactive: 0.011 | inactive: 0 | inactive: 0.005 | inactive: 0.008 | inactive: -0.015 | inactive: -0.006 | inactive: -0.005 | inactive: -0.014 | inactive: 0.01 | inactive: -0.003
TUBD1 (UniProt Q9UJT1) in the list: inactive: 0.185 | inactive: -0.128 | inactive: -0.048 | inactive: -0.044 | inactive: -0.116 | inactive: 0.045 | inactive: -0.084 | inactive: -0.077 | inactive: 0.066 | inactive: 0.155
